Experimental data: paper PMC2478664
Results are given in words; binding and its absence hold for the method and conditions named. Sequences can lack the tags named with a protein.

Protein sequences, listed by entry. Tags and fused reporters are not part of them. Lines headed by an entry give the natural chain unless they say otherwise; changes in a name come on top.
UniProt Q9C5U0: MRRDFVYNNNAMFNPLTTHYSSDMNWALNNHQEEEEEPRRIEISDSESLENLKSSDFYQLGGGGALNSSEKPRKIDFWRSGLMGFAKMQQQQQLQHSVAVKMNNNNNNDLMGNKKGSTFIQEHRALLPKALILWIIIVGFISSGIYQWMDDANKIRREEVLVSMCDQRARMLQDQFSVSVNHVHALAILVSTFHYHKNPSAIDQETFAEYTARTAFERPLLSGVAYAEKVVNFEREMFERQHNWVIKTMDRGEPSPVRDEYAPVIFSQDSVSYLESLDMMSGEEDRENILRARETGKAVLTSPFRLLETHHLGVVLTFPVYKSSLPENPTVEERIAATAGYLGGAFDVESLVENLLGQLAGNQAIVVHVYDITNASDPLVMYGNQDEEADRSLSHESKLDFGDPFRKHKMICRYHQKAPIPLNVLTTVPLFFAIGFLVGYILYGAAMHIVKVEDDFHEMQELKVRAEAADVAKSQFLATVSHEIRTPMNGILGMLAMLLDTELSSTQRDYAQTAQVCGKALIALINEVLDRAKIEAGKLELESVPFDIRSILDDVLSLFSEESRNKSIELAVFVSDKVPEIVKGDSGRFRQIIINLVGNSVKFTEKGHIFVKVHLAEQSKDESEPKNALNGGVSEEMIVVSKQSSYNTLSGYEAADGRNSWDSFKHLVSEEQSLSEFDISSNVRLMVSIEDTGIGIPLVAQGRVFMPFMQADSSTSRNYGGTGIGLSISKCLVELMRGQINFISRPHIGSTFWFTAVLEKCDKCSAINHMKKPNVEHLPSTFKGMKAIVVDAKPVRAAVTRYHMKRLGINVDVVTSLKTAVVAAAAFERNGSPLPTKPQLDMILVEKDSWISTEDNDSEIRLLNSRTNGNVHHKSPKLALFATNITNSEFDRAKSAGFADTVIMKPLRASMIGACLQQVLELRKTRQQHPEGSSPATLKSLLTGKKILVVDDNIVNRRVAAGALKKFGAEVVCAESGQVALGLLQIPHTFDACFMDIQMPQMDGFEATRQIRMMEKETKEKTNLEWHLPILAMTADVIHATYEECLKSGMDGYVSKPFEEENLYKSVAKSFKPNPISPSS

Biological target: T1, Arabidopsis response regulator 22 (ARR22), yeast two-hybrid fusion (Arabidopsis thaliana) (UniProt Q9M8Y4)
T1 sequence: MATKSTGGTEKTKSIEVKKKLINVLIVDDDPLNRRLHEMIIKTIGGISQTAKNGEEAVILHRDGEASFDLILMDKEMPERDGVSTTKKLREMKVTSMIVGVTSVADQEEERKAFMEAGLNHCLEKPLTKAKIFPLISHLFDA
Assay: two-hybrid; Matchmaker system, yeast strain PJ69-4A; BD-ARR22 bait (pGBKT7-DEST), AD preys (pGADT7-DEST); growth on interaction selective medium (CSM-L-, W-, Ade-) at 28 C and LacZ (beta-galactosidase) activity in extracts of 3 independent clones

binding: no binding
Substance: histidine kinase (HK) domain of the cytokinin receptor AHK4, AD fusion (from UniProt Q9C5U0) (domain or fragment)
